In one assay the target is CDCP1 aas 30-367 (human) (UniProt Q9H5V8). The assay can be described thus: ELISA, CDCP1 specificity on fragments.
A further assay deals with T1, CDCP1 aas 30-367 (human, UniProt Q9H5V8 30-367).
T1 construct: range 30-367
T1 sequence (looked up): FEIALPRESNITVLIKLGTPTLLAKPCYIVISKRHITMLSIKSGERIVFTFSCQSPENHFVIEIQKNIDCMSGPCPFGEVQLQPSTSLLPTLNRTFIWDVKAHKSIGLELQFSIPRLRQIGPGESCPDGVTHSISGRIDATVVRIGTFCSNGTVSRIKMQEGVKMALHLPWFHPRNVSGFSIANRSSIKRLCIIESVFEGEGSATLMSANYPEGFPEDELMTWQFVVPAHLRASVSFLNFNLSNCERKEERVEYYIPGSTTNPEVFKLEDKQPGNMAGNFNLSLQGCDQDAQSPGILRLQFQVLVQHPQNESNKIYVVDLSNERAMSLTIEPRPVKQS
The assay can be described thus: ELISA, CDCP1 specificity on fragments.

Changes are numbered by the printed parent chain. No constants are given. Whether binding was seen depends on the method and setting. Some binding calls cover weakened binding; strength is not graded here.

B1: CDCP1-004 Fab (Fab, V domains shown)
VH: EVQLVESGGGLVQPGGSLRLSCAASGFNISYYYMHWVRQAPGKGLEWVASIYSSYGYTSYADSVKGRFTISADTSKNTAYLQMNSLRAEDTAVYYCARVYYGFDYWGQGTLVTVSS
VL: DIQMTQSPSSLSASVGDRVTITCRASQSVSSAVAWYQQKPGKAPKLLIYSASSLYSGVPSRFSGSRSGTDFTLTISSLQPEDFATYYCQQSYYVYPITFGQGTKVEIK
notes: Tested as Fab
With B1, the binding result with CDCP1 aas 30-367 (human) is “binds”.

B2: CDCP1-008 Fab (Fab, V domains shown)
VH: B1 VH with Y31S, S53P, S54Y, Y55S, S59Y, V99A, G102A, F103M
VL: B1 VL
notes: Tested as Fab
On to B2, for which the binding result with CDCP1 aas 30-367 (human) is “binds”.

B3: CDCP1-005 Fab (Fab, V domains shown)
VH: B1 VH with M34I, S53P, S54Y, Y57S, S59Y, V99A
VL: B1 VL with Y93W, V94S, Y95F
notes: Tested as Fab
Regarding B3, the binding entry in the assay with CDCP1 aas 30-367 was “binds”.

B4: CDCP1-003 Fab (Fab, V domains shown)
VH: B1 VH with Y33S, Y52S, S53P, S54Y, Y55S, V99G, G102A, F103L
VL: B1 VL with S91Y, V94F, I97F
notes: Tested as Fab
Turning to B4, the binding entry in the assay with CDCP1 aas 30-367 (human) is recorded as “binds”.

B5: CDCP1-007 Fab (Fab, V domains shown)
VH: B1 VH with S30Y, Y31S, M34I, S53P, S54Y, V99A, F103M
VL: B1 VL with Y93F, V94Y, Y95W
notes: Tested as Fab
With B5, in the assay with CDCP1 aas 30-367 (human), the binding entry is reported as “binds”.

For the origin of these results see patent US20210179729A1 (University of California, published 2021).
